Some of the results follow. Residues, ends and D or L forms follow the SMILES beside them. *: point of attachment. Cbz = O=C(OCc1ccccc1)*
Tests used:
Assay in all cases: log2 fold change, soluble protein after heating vs DMSO (PISA); higher = thermal stabilisation; K562 cells, 10 uM, 30 min; active = over 0.2 and 3.5 SD of the protein, either way, in both replicates (recomputed)
erlotinib = compound: C#Cc1cccc(Nc2ncnc3cc(OCCOC)c(OCCOC)cc23)c1 [erlotinib]
In short: (§1)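 Soluble protein was quantified by TMTpro 16plex LC-MS/MS after channel sums were equalised. It was obtained as the supernatant after 21,000xg for 90 min from pooled aliquots of K562 cells (2×10^6 cells/mL, 10 μM compound, 30 min) heated for 3 min across 48°C-58°C and extracted in PBS with 0.5% NP-40 at 4°C. Thermal stability values are relative to control samples and come from duplicates. They are given as log2 fold changes.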

Protein sequences, listed by entry. Tags and fused reporters are not part of them. Lines headed by an entry give the natural chain unless they say otherwise; changes in a name come on top.
UniProt O75446: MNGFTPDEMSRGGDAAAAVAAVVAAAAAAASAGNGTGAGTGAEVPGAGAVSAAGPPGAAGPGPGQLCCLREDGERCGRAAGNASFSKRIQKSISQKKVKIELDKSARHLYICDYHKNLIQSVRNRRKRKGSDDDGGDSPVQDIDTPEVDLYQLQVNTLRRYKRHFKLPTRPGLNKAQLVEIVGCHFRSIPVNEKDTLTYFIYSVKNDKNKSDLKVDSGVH
UniProt Q9NQC3: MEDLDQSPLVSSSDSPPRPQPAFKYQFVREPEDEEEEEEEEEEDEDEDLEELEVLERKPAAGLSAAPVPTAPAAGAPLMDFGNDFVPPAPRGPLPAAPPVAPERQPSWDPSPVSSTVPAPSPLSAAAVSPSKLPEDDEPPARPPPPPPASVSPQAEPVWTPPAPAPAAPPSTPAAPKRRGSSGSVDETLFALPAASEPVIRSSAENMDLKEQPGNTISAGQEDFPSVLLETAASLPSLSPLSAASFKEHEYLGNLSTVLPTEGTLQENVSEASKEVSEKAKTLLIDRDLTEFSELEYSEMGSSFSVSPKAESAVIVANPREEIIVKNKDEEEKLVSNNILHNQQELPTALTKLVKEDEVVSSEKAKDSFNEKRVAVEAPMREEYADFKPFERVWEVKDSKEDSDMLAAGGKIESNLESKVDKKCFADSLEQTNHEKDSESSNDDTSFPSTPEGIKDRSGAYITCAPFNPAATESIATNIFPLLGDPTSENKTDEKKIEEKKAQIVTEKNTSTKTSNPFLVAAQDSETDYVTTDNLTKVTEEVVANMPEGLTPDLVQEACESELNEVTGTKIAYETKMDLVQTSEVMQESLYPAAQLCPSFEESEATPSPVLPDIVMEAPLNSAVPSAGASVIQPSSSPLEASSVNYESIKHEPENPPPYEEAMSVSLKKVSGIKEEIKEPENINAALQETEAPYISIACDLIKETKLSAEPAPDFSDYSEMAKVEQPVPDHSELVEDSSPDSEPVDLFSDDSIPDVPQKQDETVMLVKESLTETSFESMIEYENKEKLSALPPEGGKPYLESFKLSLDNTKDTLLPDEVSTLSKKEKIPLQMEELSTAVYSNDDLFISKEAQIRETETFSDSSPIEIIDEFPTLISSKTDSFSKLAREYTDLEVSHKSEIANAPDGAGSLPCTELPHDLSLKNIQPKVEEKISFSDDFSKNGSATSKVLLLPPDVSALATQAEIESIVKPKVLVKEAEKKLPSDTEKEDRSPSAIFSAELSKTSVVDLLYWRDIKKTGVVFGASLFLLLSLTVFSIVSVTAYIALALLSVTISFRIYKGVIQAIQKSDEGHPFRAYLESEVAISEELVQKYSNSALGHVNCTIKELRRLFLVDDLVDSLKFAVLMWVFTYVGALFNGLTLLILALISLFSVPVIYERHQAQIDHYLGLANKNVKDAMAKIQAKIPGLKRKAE
UniProt Q8N9R8: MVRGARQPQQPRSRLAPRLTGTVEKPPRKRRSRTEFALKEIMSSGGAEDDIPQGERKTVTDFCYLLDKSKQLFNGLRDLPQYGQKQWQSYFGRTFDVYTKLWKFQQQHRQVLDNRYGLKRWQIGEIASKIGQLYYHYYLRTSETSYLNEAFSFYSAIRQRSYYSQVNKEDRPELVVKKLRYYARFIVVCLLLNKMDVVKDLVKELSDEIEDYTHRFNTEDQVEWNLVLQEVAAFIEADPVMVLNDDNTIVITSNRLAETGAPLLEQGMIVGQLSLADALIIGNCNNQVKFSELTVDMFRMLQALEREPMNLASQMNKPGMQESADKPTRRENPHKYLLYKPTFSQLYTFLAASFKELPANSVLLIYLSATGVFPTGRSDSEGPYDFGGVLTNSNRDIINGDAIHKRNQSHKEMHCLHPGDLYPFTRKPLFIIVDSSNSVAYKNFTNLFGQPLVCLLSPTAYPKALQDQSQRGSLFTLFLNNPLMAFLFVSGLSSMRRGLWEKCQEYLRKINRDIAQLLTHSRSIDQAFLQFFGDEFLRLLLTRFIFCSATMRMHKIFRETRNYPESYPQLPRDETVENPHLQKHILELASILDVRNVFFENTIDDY
UniProt O95104: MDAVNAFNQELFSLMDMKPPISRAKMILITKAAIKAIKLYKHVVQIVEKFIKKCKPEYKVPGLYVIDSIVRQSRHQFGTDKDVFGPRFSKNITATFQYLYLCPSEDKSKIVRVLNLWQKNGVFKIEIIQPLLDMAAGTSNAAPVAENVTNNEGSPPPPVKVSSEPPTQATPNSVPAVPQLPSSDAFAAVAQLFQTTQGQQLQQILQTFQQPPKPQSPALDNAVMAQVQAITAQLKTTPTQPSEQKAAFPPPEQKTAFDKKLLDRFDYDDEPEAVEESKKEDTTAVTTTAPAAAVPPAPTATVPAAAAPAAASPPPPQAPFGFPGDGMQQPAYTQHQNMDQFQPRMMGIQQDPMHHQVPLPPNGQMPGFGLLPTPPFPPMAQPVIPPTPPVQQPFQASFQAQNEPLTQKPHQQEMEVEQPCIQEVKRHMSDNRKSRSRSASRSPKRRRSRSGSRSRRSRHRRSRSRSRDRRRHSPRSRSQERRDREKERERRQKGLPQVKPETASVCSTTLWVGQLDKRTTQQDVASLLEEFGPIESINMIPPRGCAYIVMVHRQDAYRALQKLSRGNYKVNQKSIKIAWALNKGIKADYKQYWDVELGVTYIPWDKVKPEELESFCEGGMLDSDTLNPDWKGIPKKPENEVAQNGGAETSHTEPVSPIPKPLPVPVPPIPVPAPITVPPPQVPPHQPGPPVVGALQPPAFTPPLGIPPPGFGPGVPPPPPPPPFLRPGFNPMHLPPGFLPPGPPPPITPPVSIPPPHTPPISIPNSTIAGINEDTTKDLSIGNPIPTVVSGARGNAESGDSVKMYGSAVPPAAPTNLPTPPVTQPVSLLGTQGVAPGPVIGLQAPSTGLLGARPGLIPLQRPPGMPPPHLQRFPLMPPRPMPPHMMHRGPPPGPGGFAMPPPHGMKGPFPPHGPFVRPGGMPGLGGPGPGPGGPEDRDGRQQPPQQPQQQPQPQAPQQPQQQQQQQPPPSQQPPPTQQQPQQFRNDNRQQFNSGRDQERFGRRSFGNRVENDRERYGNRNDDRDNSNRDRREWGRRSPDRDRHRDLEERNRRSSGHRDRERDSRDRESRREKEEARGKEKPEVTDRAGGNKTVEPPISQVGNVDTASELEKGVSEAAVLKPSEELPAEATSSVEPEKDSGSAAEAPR
UniProt Q96FQ6: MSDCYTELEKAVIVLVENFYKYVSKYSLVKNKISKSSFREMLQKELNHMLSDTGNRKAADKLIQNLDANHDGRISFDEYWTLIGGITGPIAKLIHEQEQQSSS
UniProt Q9H4B6: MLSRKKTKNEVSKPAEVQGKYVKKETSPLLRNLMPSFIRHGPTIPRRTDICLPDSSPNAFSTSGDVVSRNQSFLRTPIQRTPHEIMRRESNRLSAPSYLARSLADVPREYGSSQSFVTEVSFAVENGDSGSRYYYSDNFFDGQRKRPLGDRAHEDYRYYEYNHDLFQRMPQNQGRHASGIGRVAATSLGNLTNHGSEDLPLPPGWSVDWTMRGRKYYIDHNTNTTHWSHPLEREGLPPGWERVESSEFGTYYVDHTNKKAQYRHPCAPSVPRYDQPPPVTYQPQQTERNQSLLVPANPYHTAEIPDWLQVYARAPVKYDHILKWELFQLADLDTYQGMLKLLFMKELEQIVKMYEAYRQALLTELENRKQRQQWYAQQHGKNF
UniProt P60903, whole entry, looked up: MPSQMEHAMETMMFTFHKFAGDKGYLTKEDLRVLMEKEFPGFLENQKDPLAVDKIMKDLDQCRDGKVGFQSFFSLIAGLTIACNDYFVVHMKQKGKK
UniProt Q9NPB0: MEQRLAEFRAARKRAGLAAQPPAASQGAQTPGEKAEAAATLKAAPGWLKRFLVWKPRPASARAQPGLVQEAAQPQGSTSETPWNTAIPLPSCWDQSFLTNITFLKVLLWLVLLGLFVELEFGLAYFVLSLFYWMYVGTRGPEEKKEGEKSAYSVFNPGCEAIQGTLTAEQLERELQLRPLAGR
UniProt Q92622: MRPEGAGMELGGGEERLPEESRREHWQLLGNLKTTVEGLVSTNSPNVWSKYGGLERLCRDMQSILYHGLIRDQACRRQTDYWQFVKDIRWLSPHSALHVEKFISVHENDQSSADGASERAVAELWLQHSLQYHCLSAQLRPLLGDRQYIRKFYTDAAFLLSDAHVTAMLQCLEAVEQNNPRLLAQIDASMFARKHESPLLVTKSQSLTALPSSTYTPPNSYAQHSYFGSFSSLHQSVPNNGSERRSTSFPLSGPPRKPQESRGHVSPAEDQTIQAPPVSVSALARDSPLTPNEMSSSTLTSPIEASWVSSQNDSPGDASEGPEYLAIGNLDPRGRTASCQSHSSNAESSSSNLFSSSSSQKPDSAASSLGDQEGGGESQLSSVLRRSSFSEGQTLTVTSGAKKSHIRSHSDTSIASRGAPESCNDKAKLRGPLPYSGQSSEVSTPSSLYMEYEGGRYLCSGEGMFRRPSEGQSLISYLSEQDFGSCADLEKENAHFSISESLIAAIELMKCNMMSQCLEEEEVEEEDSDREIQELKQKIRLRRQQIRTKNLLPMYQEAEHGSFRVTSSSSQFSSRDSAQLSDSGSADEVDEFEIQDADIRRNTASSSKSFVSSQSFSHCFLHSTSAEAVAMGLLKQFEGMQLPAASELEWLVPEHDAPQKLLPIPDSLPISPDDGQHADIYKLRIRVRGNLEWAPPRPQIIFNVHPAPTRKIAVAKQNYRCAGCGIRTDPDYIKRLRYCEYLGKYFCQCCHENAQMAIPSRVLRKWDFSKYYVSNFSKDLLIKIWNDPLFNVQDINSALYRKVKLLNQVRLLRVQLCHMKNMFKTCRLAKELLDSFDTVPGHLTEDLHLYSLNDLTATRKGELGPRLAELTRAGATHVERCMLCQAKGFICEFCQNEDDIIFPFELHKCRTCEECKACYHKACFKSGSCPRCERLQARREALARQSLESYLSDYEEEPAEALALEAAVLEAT
UniProt Q14160: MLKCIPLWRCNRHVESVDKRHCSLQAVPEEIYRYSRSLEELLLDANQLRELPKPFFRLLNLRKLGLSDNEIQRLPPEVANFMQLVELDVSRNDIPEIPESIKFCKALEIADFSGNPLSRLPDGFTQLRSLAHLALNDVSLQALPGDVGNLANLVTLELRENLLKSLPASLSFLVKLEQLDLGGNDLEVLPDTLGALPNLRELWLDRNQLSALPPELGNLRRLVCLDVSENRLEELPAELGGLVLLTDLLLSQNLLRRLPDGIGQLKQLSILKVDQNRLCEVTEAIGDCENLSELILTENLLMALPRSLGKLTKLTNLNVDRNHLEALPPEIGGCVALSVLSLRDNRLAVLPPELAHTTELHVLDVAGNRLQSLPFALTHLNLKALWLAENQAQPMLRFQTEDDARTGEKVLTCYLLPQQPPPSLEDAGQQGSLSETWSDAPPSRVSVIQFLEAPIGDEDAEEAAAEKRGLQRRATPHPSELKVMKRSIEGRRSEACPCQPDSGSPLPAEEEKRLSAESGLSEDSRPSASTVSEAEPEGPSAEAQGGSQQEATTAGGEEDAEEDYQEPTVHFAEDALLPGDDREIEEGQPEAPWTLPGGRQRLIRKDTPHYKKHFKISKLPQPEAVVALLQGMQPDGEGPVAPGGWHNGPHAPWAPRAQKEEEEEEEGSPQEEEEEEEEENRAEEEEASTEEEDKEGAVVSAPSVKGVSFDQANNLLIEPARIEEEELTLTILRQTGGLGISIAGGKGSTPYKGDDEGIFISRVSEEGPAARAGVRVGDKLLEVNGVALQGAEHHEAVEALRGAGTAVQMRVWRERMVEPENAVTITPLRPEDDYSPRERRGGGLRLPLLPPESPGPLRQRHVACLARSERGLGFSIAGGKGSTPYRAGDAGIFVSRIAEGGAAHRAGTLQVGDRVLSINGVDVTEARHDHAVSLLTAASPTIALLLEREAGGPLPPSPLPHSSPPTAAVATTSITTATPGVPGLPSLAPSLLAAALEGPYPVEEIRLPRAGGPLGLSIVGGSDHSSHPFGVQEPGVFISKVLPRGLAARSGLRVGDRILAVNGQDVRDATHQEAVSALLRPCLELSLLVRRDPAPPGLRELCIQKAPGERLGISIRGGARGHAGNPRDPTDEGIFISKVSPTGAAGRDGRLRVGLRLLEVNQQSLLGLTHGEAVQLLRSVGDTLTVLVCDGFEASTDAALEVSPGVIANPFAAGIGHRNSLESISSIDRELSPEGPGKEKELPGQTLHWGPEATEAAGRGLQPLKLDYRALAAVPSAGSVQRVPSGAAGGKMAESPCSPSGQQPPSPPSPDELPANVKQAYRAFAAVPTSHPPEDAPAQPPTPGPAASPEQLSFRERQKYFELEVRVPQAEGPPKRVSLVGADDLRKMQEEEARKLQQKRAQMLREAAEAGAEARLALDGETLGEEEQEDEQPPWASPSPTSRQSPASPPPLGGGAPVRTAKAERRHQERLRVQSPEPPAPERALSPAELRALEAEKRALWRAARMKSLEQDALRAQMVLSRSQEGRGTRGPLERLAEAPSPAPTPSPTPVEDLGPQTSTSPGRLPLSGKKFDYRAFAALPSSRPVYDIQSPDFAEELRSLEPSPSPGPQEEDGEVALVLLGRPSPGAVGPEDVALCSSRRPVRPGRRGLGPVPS

[1] = compound: C/C(=N\NC(=O)C1=CC(=CC=C1)S(=O)(=O)N2CCOCC2)/C3=C(C=CC(=C3)Cl)O
In short: as §1

[2] = compound: C1=CC(=C(C=C1Cl)C2=NC3=NC=CN=C3C(=N2)NC4=CC=NC=C4)F
In short: as §1

[3] = compound: C1=CC(=CC=C1C2=NC3=C(N2)C=C(C=C3)C(=O)N)OC4=CC=C(C=C4)Cl
In short: as §1

[4] = compound: C1=CC2=C(C=CC(=C2)/C=C\3/C(=O)NC(=NCC4=CC=CS4)S3)N=C1
In short: as §1

[5] = compound: C1=CC2=NC=CN=C2C=C1/C=C/3\C(=O)NC(=O)S3
In short: as §1

[6] = compound: C1=CC=C2C(=C1)C3=NNC4=CC=CC(=C43)C2=O
In short: as §1

[7] = compound: C1CCN(C1)C(=O)NC2=CC=CC(=C2)NC3=NC=C(C(=N3)NCCC4=CN=CN4)Br
In short: as §1

[8] = compound: C1CN(CCC1(CC2=CC=C(C=C2)Cl)N)C3=NC=NC4=C3C=CN4
In short: as §1

IRAK-1-4 Inhibitor I = compound: C1COCCN1CCN2C3=CC=CC=C3N=C2NC(=O)C4=CC(=CC=C4)[N+](=O)[O-] [IRAK-1-4 Inhibitor I]
In short: as §1

ibrutinib = compound: C=CC(=O)N1CCC[C@@H](n2nc(-c3ccc(Oc4ccccc4)cc3)c3c(N)ncnc32)C1 [ibrutinib]
In short: as §1

[9] = compound: CC(=O)c1cnc2ccc(-c3cc(Cl)c(O)c(Cl)c3)nc2c1N[C@H]1CC[C@H](CN(C)C)CC1
In short: as §1

[10] = compound: CC(C)(O)CC(=O)NCCn1ccc2ncnc(Nc3ccc(Oc4cccc(C(F)(F)F)c4)c(Cl)c3)c21
In short: as §1

[11] = compound: CC(C)C1=C2N=C(C=C(N2N=C1)NCC3=CC=CC=C3)NCCCCCCN
In short: as §1

pinometostat = compound: CC(C)N(C[C@H]1O[C@@H](n2cnc3c(N)ncnc32)[C@H](O)[C@@H]1O)[C@H]1C[C@@H](CCc2nc3cc(C(C)(C)C)ccc3[nH]2)C1 [pinometostat]
In short: as §1

[12] = compound: CC1=C(C2=C(C=C1)C(=O)C3=CC=CC=C3N2CCCN)C
In short: as §1

[13] = compound: C1=CC=C(C=C1)C2=NC(=C(N2)C3=CC=NC=C3)C4=CC(=C(C=C4)Cl)O
In short: as §1

ralimetinib = compound: CC(C)(C)Cn1c(N)nc2ccc(-c3[nH]c(C(C)(C)C)nc3-c3ccc(F)cc3)nc21 [ralimetinib]
In short: as §1

[14] = compound: CC(C)C[C@@H](C=O)NC(=O)[C@H](CC(C)C)NC(=O)[C@H](CC(C)C)NC(=O)OCc1ccccc1
In short: as §1

[15] = compound: CC1=C(C(CC(=O)N1)C2=CC=C(C=C2)C(F)(F)F)C(=O)NC3=C(C=C4C(=C3)C=NN4)F
In short: as §1

Measured: log2 fold change

SDHAF4 (UniProt Q5VUM1)
inactive: erlotinib 0 | [1] 0.104 | [2] 0.026 | [3] 0.031 | [4] 0.118 | [5] 0.033 | [6] -0.117 | [7] 0.054 | [8] 0.094 | IRAK-1-4 Inhibitor I -0.071 | ibrutinib 0.01 | [9] -0.055 | [10] 0.081 | [11] 0.149 | pinometostat -0.082 | [12] 0.021

SAP30 (UniProt O75446)
inactive: erlotinib -0.04 | [1] 0.061 | [2] -0.069 | [3] -0.027 | [4] 0.018 | [6] -0.13 | IRAK-1-4 Inhibitor I 0.018 | [9] 0.085 | [10] 0.151 | [11] 0.111 | pinometostat 0.111

RSL24D1 (UniProt Q9UHA3)
inactive: erlotinib -0.547 | [1] -0.272 | [2] -0.778 | [3] -0.355 | [4] 0.153 | [5] 0.019 | [13] -0.174 | [6] -0.055 | [7] 0.049 | [8] -0.162 | ibrutinib -0.063 | [9] 0.301 | ralimetinib 0.211 | [10] 0.104 | [11] 0.235 | [14] 0.091 | [15] -0.018 | [12] -0.273

RTN4 isoform 5 (UniProt Q9NQC3)
inactive: erlotinib 0.342 | [1] -0.023 | [2] -0.049 | [3] 0.041 | [4] -0.004 | [13] -0.01 | [6] -0.056 | [7] 0.005 | [8] 0.09 | IRAK-1-4 Inhibitor I 0.037 | [9] 0.028 | ralimetinib 0.007 | [10] 0.05 | [11] -0.097 | [14] 0.156 | pinometostat -0.065 | [15] -0.094 | [12] 0.023

SEC22A (UniProt Q96IW7)
inactive: erlotinib 0.014 | [1] 0.029 | [3] -0.083 | [4] 0.083 | [5] 0.013 | [13] 0.002 | [6] -0.068 | [7] 0.029 | [8] -0.01 | IRAK-1-4 Inhibitor I 0.006 | ibrutinib -0.132 | [9] 0.069 | ralimetinib -0.085 | [11] 0.158 | [14] 0.034 | pinometostat -0.15 | [12] -0.027

SCAI isoform 2 (UniProt Q8N9R8)
inactive: erlotinib -0.094 | [1] 0.034 | [2] -0.076 | [3] 0.148 | [4] -0.003 | [13] -0.07 | [6] -0.056 | IRAK-1-4 Inhibitor I -0.185 | [9] -0.252 | ralimetinib 0.064 | [10] -0.028 | [11] -0.081 | [14] 0.055 | pinometostat -0.042

SCGB1D2 (UniProt O95969)
inactive: erlotinib 0.526 | [1] -0.335 | [2] -0.078 | [3] -0.49 | [4] -0.092 | [5] -0.247 | [13] 0.639 | [6] -0.707 | [7] -0.487 | [8] -0.273 | ibrutinib 0.039 | [9] 0.026 | ralimetinib -0.156 | [10] -0.07 | [11] -0.098 | [14] -0.304 | [15] -0.5 | [12] 0.786

SCAF4 (UniProt O95104)
inactive: erlotinib 0.153 | [1] -0.012 | [2] 0.052 | [3] 0.001 | [4] -0.015 | [5] 0.045 | [6] -0.007 | [7] -0.033 | [8] -0.074 | IRAK-1-4 Inhibitor I -0.06 | ibrutinib 0.004 | [9] -0.06 | [10] -0.164 | [11] -0.2 | pinometostat 0.13 | [15] -0.002 | [12] 0.104

Quoted from the entries so far (2 entries):
RTN4 isoform 5 (UniProt Q9NQC3)
inactive: erlotinib 0.342 | [1] -0.023 | [2] -0.049 | [3] 0.041 | [4] -0.004 | [13] -0.01 | [6] -0.056 | [7] 0.005 | [8] 0.09 | IRAK-1-4 Inhibitor I 0.037 | [9] 0.028 | ralimetinib 0.007 | [10] 0.05 | [11] -0.097 | [14] 0.156 | pinometostat -0.065 | [15] -0.094 | [12] 0.023

SEC22A (UniProt Q96IW7)
inactive: erlotinib 0.014 | [1] 0.029 | [3] -0.083 | [4] 0.083 | [5] 0.013 | [13] 0.002 | [6] -0.068 | [7] 0.029 | [8] -0.01 | IRAK-1-4 Inhibitor I 0.006 | ibrutinib -0.132 | [9] 0.069 | ralimetinib -0.085 | [11] 0.158 | [14] 0.034 | pinometostat -0.15 | [12] -0.027

More entries.

S100A16 (UniProt Q96FQ6)
inactive: erlotinib -0.018 | [2] 0.222 | [3] -0.116 | [5] -0.022 | [7] 0.098 | [8] -0.3 | IRAK-1-4 Inhibitor I 0.108 | ibrutinib 0.338 | [10] -0.095 | [11] -0.279 | pinometostat -0.199 | [15] -0.594 | [12] 0.752

SAV1 (UniProt Q9H4B6)
inactive: [7] -0.02 | [8] -0.066 | [12] -0.022

RXYLT1 (UniProt Q9Y2B1)
inactive: erlotinib -0.013 | [3] -0.05 | [11] 0.215 | [15] -0.154

S100A10 (UniProt P60903)
inactive: [1] 0.122 | [4] 0.194 | [5] 0.052 | [6] -0.096 | [7] -0.042 | [8] -0.013 | ibrutinib 0.605 | [9] -0.345 | [12] 0.522

RTN4, A0A0U1RQR6
inactive: [2] -0.105 | [10] 0.076

SDCBP isoform 2 (UniProt O00560)
inactive: erlotinib 0.157 | [2] 0.007 | [3] 0.159 | [5] 0.009 | [13] -0.299 | [7] 0.249 | [8] 0.096 | ibrutinib 0 | ralimetinib 0.06 | [10] 0.008 | [11] -0.444 | [14] 0.13 | [12] 0.033

SAYSD1 (UniProt Q9NPB0)
inactive: erlotinib -0.004 | [2] -0.003 | [3] -0.003 | [5] -0.098 | ibrutinib -0.004 | [10] -0.232 | [11] -0.208

RUBCN (UniProt Q92622)
inactive: [13] 0.122 | ralimetinib 0.097 | [14] 0.119

SBF2 (UniProt Q86WG5)
inactive: [2] 0.17 | [13] 0.329 | ralimetinib 0.179 | [10] 0.029 | [14] -0.006

SEC14L1 isoform 2 (UniProt Q92503)
inactive: erlotinib -0.053 | [2] 0.012 | [3] 0.026 | [7] 0.087 | [8] 0.025 | [10] 0.04 | [11] -0.098 | [12] 0.077

SCRIB isoform 3 (UniProt Q14160)
inactive: erlotinib 0.077 | [3] -0.054 | [13] -0.01 | [7] 0.022 | [8] 0.001 | IRAK-1-4 Inhibitor I -0.316 | ralimetinib 0.107 | [11] -0.162 | [14] 0.025 | pinometostat 0.346 | [12] 0.029

Reference: the supplement of paper PMC10849652
